Source: PubChem BioAssay AID652163 (Broad Institute, 2013)
“And” between values parts separate entries of the source, which are not always exact repeats. Equal values may be shown once. Out of some 360,000 compounds screened, about 500 (0.14%) were called active. The shares of active, inactive and inconclusive entries below differ from those in the screen.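 The calls were made as follows: active = mean inhibition of at least 70% across replicates, with every replicate also reaching that level; inconclusive = mean inhibition reaches 70% but some replicates fall short; inactive = mean inhibition below 70%.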

Chains of the proteins cited; added tags and fusions are not shown.
UniProt P26447, whole entry, looked up: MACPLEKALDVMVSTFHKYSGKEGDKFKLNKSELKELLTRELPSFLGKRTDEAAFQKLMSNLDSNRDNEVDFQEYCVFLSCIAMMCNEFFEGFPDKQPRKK

The molecules below were run against Protein S100-A4 (Homo sapiens) (UniProt P26447) (assay: inhibitors of S100A4-myosin IIA peptide binding, primary screen, biochemical, fluorescence polarization, TAMRA-MyoIIA peptide (AID 652163)). Conditions: at 10.7 µM, stronger effect = higher value.
Procedure, shortened: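 Material: S100A4 monomer (human). Medium: Calcium-containing HEPES buffer, pH 7.2. Probe or stimulus: labelled myosin peptide probe, 5 nM. Compound dosing: one concentration per compound. Timing: polarization read 5 min after assay mix addition, stable 5–60 min. Benchmarks: DMSO as neutral control, TFP as positive control.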
With `C[C@@H]1CN([C@H](C)CO)C(=O)c2cccc(NC(=O)CCCCCC(=O)Nc3ccccc3N)c2O[C@H]1CN(C)S(C)(=O)=O` the inhibition was inconclusive: 71.6%. For `C[C@H]1CN([C@@H](C)CO)C(=O)CCCn2cc(nn2)CO[C@@H]1CN(C)C(=O)Nc1ccccc1C(F)(F)F`, the inhibition was inconclusive: 78.9%. With `N#C[C@@H]1[C@@H](c2ccc(C3=CCCCC3)cc2)[C@@H](CO)N1C(=O)NC1CCCC1` the inhibition was inconclusive: 84.7%. `CN1CCCCN2[C@@H](CO)[C@@H](c3ccc(C#CC4(O)CCCC4)cc3)[C@@H]2C1` was tested, and the inhibition was active: 92%. `C[C@@H]1CN([C@@H](C)CO)C(=O)c2cccc(NC(=O)Nc3cccc4ccccc34)c2O[C@H]1CN(C)C(=O)Nc1ccccc1` was tested, and the inhibition was active: 105%. In the case of `Cc1cccc(N2C(=O)/C(=C\c3ccc(C(=O)O)cc3)c3ccccc3C2=O)c1`, the inhibition is reported as inactive: 0.278%. `COC(=O)CCCC1=CC2=C(c3ccccc3)C(=O)C(C)(OC(=O)C3CCCC3)C(=O)C2=CN1Cc1ccc2c(c1)OCO2` (stereo not drawn) was tested, and the inhibition was inconclusive: 98.1%. With `Cc1sc(NC(=O)CS(=O)(=O)c2ccccc2)c(C(N)=O)c1C` the inhibition was inactive: -7.5%. For `O=C([C@@H]1[C@@H](CO)[C@@H]2Cn3c(cccc3=O)[C@@H]2N1Cc1ccccc1Cl)N1CCOCC1`, the inhibition was inactive: -6.29%. With `CO[C@H]1CN(C)C(=O)c2ccc(NC(=O)NC(C)C)cc2OC[C@@H](C)N(C(=O)CN(C)C)C[C@@H]1C` the inhibition was inconclusive: 72.2%. `CC(C)C#Cc1cnc2c(c1)C(=O)N([C@@H](C)CO)C[C@@H](C)[C@@H](CN(C)C(=O)Nc1ccc(F)cc1)O2` was tested, and the inhibition was inconclusive: 71.9%. In the case of `CCCNC(=O)Nc1ccc2c(c1)C(=O)N(C)C[C@@H](OC)[C@@H](C)CN[C@@H](C)CO2`, the inhibition is reported as active: 111%. For `CNC[C@H]1Oc2ccc(NC(=O)CCCN(C)C)cc2C(=O)N([C@H](C)CO)C[C@@H]1C`, the inhibition was inconclusive: 82%. In the case of `CN1[C@@H]2c3ccc(-c4ccccc4)c(=O)n3C[C@H]1[C@H](CO)[C@H]2C(=O)N1CCC(Cc2ccccc2)CC1`, the inhibition is reported as inactive: 0.274%. In the case of `COCC(=O)N(C)C[C@@H]1Oc2cc(C#CCC(C)C)ccc2S(=O)(=O)N([C@@H](C)CO)C[C@@H]1C`, the inhibition is reported as inconclusive: 85.5%. In the case of `Nc1c(/C=C2/C=CC(=O)C(O)=C2)c(=O)nc2sc(CC(=O)N3CCOCC3)nn12`, the inhibition is reported as inactive: -2.86%. In the case of `O=C(Oc1ccccc1Cl)c1ccc2c(=O)n3c(nc2c1)CCC3`, the inhibition is reported as inactive: -5.12%. For `O=C(Nc1cccc(Cl)c1)N[C@H]1CC[C@H](CCNC(=O)C2CCCC2)O[C@H]1CO`, the inhibition was active: 132%. With `CS(=O)(=O)Nc1ccc2c(c1)[C@H]1C[C@@H](CC(=O)NCC3CC3)O[C@H](CO)[C@H]1O2` the inhibition was inconclusive: 97.6%. For `Cc1oc(-c2ccc(Cl)cc2)nc1CN1CCCC(C(=O)N2CCOCC2)C1` (stereo not drawn), the inhibition was inactive: 1.5%. `Cc1cc2cc(CNS(=O)(=O)c3ccccc3)ccc2n1C` was tested, and the inhibition was inconclusive: 73%. `Cc1onc(-c2ccc(Cl)cc2Cl)c1-c1csc(N/N=C/c2ccccc2)n1` was tested, and the inhibition was inactive: -6.76%. `O=C(Cc1ccccn1)N[C@@H]1CC[C@@H](CCNS(=O)(=O)c2cccc(F)c2)O[C@H]1CO` was tested, and the inhibition was active: 132%. For `C[C@H](CO)N1C[C@H](C)[C@@H](CN(C)S(C)(=O)=O)Oc2ccc(NC(=O)Nc3ccccc3)cc2CC1=O`, the inhibition was inconclusive: 94.7%. For `COc1ccccc1C#Cc1cnc2c(c1)C(=O)N([C@H](C)CO)C[C@@H](C)[C@@H](CN(C)C(=O)CC1CC1)O2`, the inhibition was inconclusive: 101%. In the case of `COc1ncnc2c1ncn2CCCN1CCN(c2ccccn2)CC1`, the inhibition is reported as inactive: 3.1%. For `Cn1cnc(S(=O)(=O)N[C@H]2CC[C@H](CC(=O)NCC3CC3)O[C@@H]2CO)c1`, the inhibition was inconclusive: 85.8%. `CN(C)C(=O)C[C@@H]1CC[C@H]2[C@@H](COC[C@@H](O)CN2C(=O)C2CC2)O1` was tested, and the inhibition was inconclusive: 75%. `COc1ccc(S(=O)(=O)Nc2ccc3c(c2)C(=O)N([C@@H](C)CO)C[C@@H](C)[C@H](CN(C)C(=O)Nc2c(C)noc2C)OCCCC[C@@H](C)O3)cc1` was tested, and the inhibition was inactive: 2.08%. For `CN(C(=O)CN1C(=O)/C(=C/c2ccccc2F)SC1=S)C1CCS(=O)(=O)C1` (stereo not drawn), the inhibition was inconclusive: 78.7%. For `N#Cc1ccc(-c2ccc([C@H]3[C@H](CO)N4C(=O)CN(C(=O)C5CC5)C[C@@H]34)cc2)cc1`, the inhibition was inconclusive: 71.3%. In the case of `N#C[C@@H]1[C@@H](c2ccccc2C2=CCCCC2)[C@H](CO)N1S(=O)(=O)c1ccccc1`, the inhibition is reported as inconclusive: 99.8%. With `C=CCn1cccc(C(=O)Nc2ccc(OC)c(OC)c2)c1=O` the inhibition was inconclusive: 89.8%. With `Cc1nn(C)c(C(=O)N/N=C/c2ccc(-c3ccccc3)cc2)c1Cl` the inhibition was inconclusive: 77.7%. For `C[C@H](CO)N1C[C@H](C)[C@H](CN(C)C)Oc2cc(C#CC3CCCCC3)ccc2S1(=O)=O`, the inhibition was inconclusive: 112%. `O=C(c1cccc(F)c1)N1C[C@@H]2[C@H](c3ccccc31)[C@H](CO)N2C(=O)c1ccc(F)cc1` was tested, and the inhibition was inconclusive: 83.4%. In the case of `N#C[C@@H]1[C@@H](c2ccccc2-c2cccc(F)c2)[C@@H](CO)N1C(=O)C1CC1`, the inhibition is reported as inconclusive: 80.5%. `COc1cccc(NC(=O)N2[C@@H]3CNC[C@H]2C3c2ccc(-c3cccc(OC)c3)cc2)c1` (stereo partly drawn) was tested, and the inhibition was inactive: -15.1% and inactive: 3.65%. `Cc1ccc(S(=O)(=O)Nc2ccc3c(c2)C(=O)N([C@@H](C)CO)C[C@H](C)[C@@H](CN(C)Cc2ccc(Cl)c(Cl)c2)OCCCC[C@@H](C)O3)cc1` was tested, and the inhibition was inconclusive: 77.9%. `Cc1nnc2sc(SCC(=O)N3CCCCC3)nn2c1=O` was tested, and the inhibition was inactive: 0.682%. For `O=C(O)CCC(=O)Nc1ccc(-c2nc3ccc(C(=O)c4ccccc4)cc3[nH]2)cc1`, the inhibition was inactive: -1.52%. With `CN(C)Cc1cn(CC[C@H]2CC[C@H](NC(=O)Cc3cccnc3)[C@H](CO)O2)nn1` the inhibition was active: 93.8%. In the case of `COCC(=O)Nc1ccc2c(c1)C(=O)N(C)C[C@H](OC)[C@H](C)CN(Cc1ccncc1)[C@H](C)CO2`, the inhibition is reported as inconclusive: 85.3%.
